Experimental data reported in publication PMC9293964.
These are yes or no findings as the source states them, for the method shown. Binding seen in cells or lysates may run through a third protein. Some entries that bind do so weakly or less than the wild type. Tags and fused reporters may be left off the sequences shown.

Molecular target: T1, FLAG-mANGPTL8 (angiopoietin-like protein 8) (mouse) (UniProt Q8R1L8)
T1 sequence: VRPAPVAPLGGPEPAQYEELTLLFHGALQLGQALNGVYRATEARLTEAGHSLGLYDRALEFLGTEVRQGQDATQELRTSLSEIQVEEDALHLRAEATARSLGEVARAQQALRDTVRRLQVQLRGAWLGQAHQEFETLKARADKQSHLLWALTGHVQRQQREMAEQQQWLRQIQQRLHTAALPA
Experiment: co-IP; FLAG-mANGPTL8 and Pe-CFP-PIRB transfected into 293-T cells; lysed after 24 h in IP buffer (50 mM Tris-HCl pH 7.5, 150 mM NaCl, 1% NP-40, 0.1% SDS-Na, proteinase inhibitor); anti-FLAG-M2 agarose beads overnight at 4 °C; western blot; the legend also names an IP with a LILRB3 antibody

binding: binds
B1: Pe-CFP-PIRB (paired immunoglobulin-like receptor B) (receptor, UniProt P97484 25-841)
chain: SLPKPILRVQPDSVVSRRTKVTFLCEETIGANEYRLYKDGKLYKTVTKNKQKPENKAEFSFSNVDLSNAGQYRCSYSTQYKSSGYSDLLELVVTGHYWTPSLLAQASPVVTSGGYVTLQCESWHNDHKFILTVEGPQKLSWTQDSQYNYSTRKYHALFSVGPVTPNQRWICRCYSYDRNRPYVWSPPSESVELLVSGNLQKPTIKAEPGSVITSKRAMTIWCQGNLDAEVYFLHNEKSQKTQSTQTLQEPGNKGKFFIPSVTLQHAGQYRCYCYGSAGWSQPSDTLELVVTGIYEYYEPRLSVLPSPVVTAGGNMTLHCASDFPYDKFILTKEDKKFGNSLDTEHISSSGQYRALFIIGPTTPTHTGAFRCYGYYKNAPQLWSVPSALQQILISGLSKKPSLLTHQGHILDPGMTLTLQCFSDINYDRFALHKVGGADIMQHSSQQTDTGFSVANFTLGYVSSSTGGQYRCYGAHNLSSEWSASSEPLDILITGQLPLTPSLSVQPNHTVHSGETVSLLCWSMDSVDTFILSKEGSAQQPLRLKSKSHDQQSQAEFSMSAVTSHLSGTYRCYGAQDSSFYLLSSASAPVELTVSGPIETSTPPPTMSMPLGGLHMYLKALIGVSVAFILFLFIFIFILLRRRHRGKFRKDVQKEKDLQLSSGAEEPITRKGELQKRPNPAAATQEESLYASVEDMQTEDGVELNSWTPPEEDPQGETYAQVKPSRLRKAGHVSPSVMSREQLNTEYEQAEEGQGANNQAAESGESQDVTYAQLCSRTLRQGAAASPLSQAGEAPEEPSVYATLAAARPEAVPKDMEQ
